Taken from: PubChem BioAssay AID686938 (Drosophila RNAi Screening Center, 2013)
The deposit covers about 23,000 reagents; below is an unselected part of those with a known target gene and a result. Of all reagents, 75 (0.33%) got an active call. 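Raw plate signals without normalisation; calls rest on plate z-scores that were not deposited; ratio present for only 364 wells.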 A number with no mark means an inactive call. Names joined by + are all predicted targets of the reagent. Not stated in the record: the dose of the treatment.

Screen: 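Looking for CRAC channel components and the factors controlling them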 (primary screen)
System: Drosophila S2R+ cells
Knock-down reagent: long dsRNA against Drosophila genes, about 0.25 µg dsRNA per well, roughly 10,000 cells
Timing: 5 days of knock-down before the calcium assay
Challenge: thapsigargin (SERCA pump blocker) to empty calcium stores; entry signal taken 4 min after adding it
Measurement: 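Per-well fluo-4 fluorescence in two replicates, unnormalised, measured in resting cells and 4 min after store depletion by the SERCA blocker thapsigargin; ratio of the two present in few wells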
Reading the numbers: calcium entry signal: higher = stronger calcium signal after store depletion; entry to resting ratio: higher = more calcium entry relative to resting level; resting calcium signal: higher = higher resting calcium signal
Call rule: 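Hit if the duplicate-averaged plate z-score for entry over resting signal is under −3; wells with weak total dye signal (Fmax z < −2) or more than 5 off-targets removed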
Calls: active = strongly reduced calcium entry; inactive = no strong reduction

no.	target gene	DRSC id	calcium entry signal, replicate 1 (fluorescence units)	calcium entry signal, replicate 2 (fluorescence units)	entry to resting ratio	resting calcium signal, replicate 1 (fluorescence units)	resting calcium signal, replicate 2 (fluorescence units)
1	CG11581	DRSC19407	2.87e7	2.97e7		1.51e7	1.17e7
2	Rdh1 (Retinol dehydrogenase 1)	DRSC06812	2.68e7	1.94e7		1.22e7	8.83e6
3	Or45b (Odorant receptor 45b)	DRSC07488	3.74e7	2.58e7		1.79e7	1.51e7
4	CG34235 + CG30058 + CG34312	DRSC22142	2.60e7	3.30e7		1.35e7	1.55e7
5	CG5535	DRSC10514	3.45e7	3.92e7		1.56e7	2.69e7
6	CG5554	DRSC04513	4.48e7	5.22e7		2.32e7	2.48e7
7	CG9636	DRSC16529	2.47e7	3.28e7		1.16e7	1.43e7
8	CG30075	DRSC05484	4.90e7	4.83e7		2.69e7	2.04e7
9	ppk10 (pickpocket 10)	DRSC01123	3.30e7	5.04e7		1.71e7	2.22e7
10	Cox17 (Cytochrome c oxidase copper chaperone COX17)	DRSC20145	5.61e7	3.25e7		2.71e7	1.54e7
11	dsx-c73A (doublesex cognate 73A)	DRSC09435	4.73e7	4.17e7		2.06e7	2.18e7
12	dsx-c73A (doublesex cognate 73A)	DRSC09914	3.73e7	5.02e7		1.93e7	1.99e7
13	dsx-c73A (doublesex cognate 73A)	DRSC10429	3.87e7	5.47e7		1.85e7	2.12e7
14	Esyt2 (Extended synaptotagmin-like protein 2)	DRSC16082	5.30e7	4.38e7		2.42e7	1.90e7
15	Spn88Ea (Serpin 88Ea)	DRSC17061	3.79e7	5.55e7		1.89e7	7.03e7
16	CR30374 (pseudo)	DRSC05080	3.13e7	6.33e7		1.67e7	2.45e7
17	CG13443	DRSC06403	3.03e7	2.95e7		1.48e7	1.30e7
18	dco (discs overgrown)	DRSC16929	3.88e7	3.66e7		1.84e7	1.94e7
19	JhI-26 (Juvenile hormone-inducible protein 26)	DRSC06851	3.62e7	3.29e7		1.70e7	1.66e7
20	Psf2 (Partner of Sld Five 2)	DRSC00516	1.87e7	1.99e7		1.07e7	9.69e6
21	CG10909	DRSC14282	3.05e7	3.08e7		1.56e7	1.66e7
22	eIF2Bdelta (eukaryotic translation initiation factor 2B subunit delta)	DRSC04058	4.35e7			2.12e7	
23	CG12828	DRSC06177	3.16e7	4.36e7		1.58e7	1.91e7
24	CG6709 + Hez	DRSC10165	2.85e7	4.09e7		1.50e7	1.91e7
25	CG6709 + Hez	DRSC10698	3.44e7	4.32e7		1.69e7	1.82e7
26	Cpr72Ea (Cuticular protein 72Ea)	DRSC10451	4.14e7	4.92e7		1.89e7	3.36e7
27	CG43293	DRSC08797	3.79e7	3.66e7		2.10e7	1.69e7
28	mst (misato)	DRSC20582	4.23e7	4.29e7		1.94e7	1.65e7
29	MED21 (Mediator complex subunit 21)	DRSC20932	2.83e7	3.69e7		1.55e7	1.61e7
30	Gip (GIP-like)	DRSC18667	4.54e7	2.87e7		2.13e7	1.42e7
31	Cbl (Cbl proto-oncogene)	DRSC10764	2.96e7	4.59e7		1.45e7	2.06e7
32	Cbl (Cbl proto-oncogene)	DRSC11111	2.94e7	4.72e7		1.57e7	2.08e7
33	Cul5 (Cullin 5)	DRSC14723	3.56e7	6.14e7		1.88e7	2.52e7
34	svr (silver)	DRSC17293	4.08e7	4.49e7		2.25e7	1.96e7
35	svr (silver)	DRSC18841	4.84e7	5.32e7	2.2	2.19e7	2.25e7
36	ND-39 (NADH dehydrogenase (ubiquinone) 39 kDa subunit)	DRSC11791	4.30e7	5.98e7		1.77e7	3.58e7
37	CG4382	DRSC02743	2.93e7	5.76e7		1.53e7	2.57e7
38	blanks	DRSC09757	2.92e7	4.04e7		1.35e7	1.75e7
39	CG33468	DRSC22940	3.89e7	3.62e7		1.91e7	1.57e7
40	CG6813	DRSC16122	3.72e7	3.86e7		1.82e7	1.98e7
41	CG5177	DRSC02824	4.91e7			1.93e7	
42	CG12155	DRSC17826	4.28e7	4.14e7		2.04e7	1.95e7
43	CG12155	DRSC23294	4.14e7	2.71e7		1.88e7	1.43e7
44	Pop2	DRSC10537	4.24e7	3.71e7		2.97e7	1.62e7
45	wat (waterproof)	DRSC14854	3.56e7	5.94e7		1.96e7	2.40e7
46	CG13110	DRSC02208	3.78e7	3.32e7		1.78e7	1.63e7
47	l(1)G0320 (lethal (1) G0320)	DRSC18255	3.54e7	3.76e7		1.65e7	1.68e7
48	CG34370	DRSC03913	3.08e7	4.67e7		1.46e7	1.98e7
49	CG34370	DRSC04142	4.43e7	4.56e7		2.04e7	1.99e7
50	CG34370	DRSC04143	4.58e7	4.68e7		2.17e7	2.02e7
51	CG34370	DRSC04144	4.50e7	4.66e7		1.99e7	1.86e7
52	Cyp6a13 (Cytochrome P450 6a13)	DRSC07375	3.72e7	3.48e7		1.52e7	1.69e7
53	G6P (Glucose-6-Phosphatase)	DRSC00414	3.54e7	5.44e7		1.67e7	2.18e7
54	TwdlJ (TweedleJ)	DRSC15812	1.94e7	3.45e7		1.11e7	1.59e7
55	Polr2E (RNA polymerase II, I and III subunit E)	DRSC06100	1.45e7	3.70e7		9.86e6	1.66e7
56	Ercc1	DRSC07424	2.26e7	2.92e7		1.29e7	1.58e7
57	mRpS7 (mitochondrial ribosomal protein S7)	DRSC02814	6.26e7			2.81e7	
58	CG8191	DRSC20091	2.93e7	3.39e7		1.58e7	1.56e7

8 successive reagents from above, quoted:
no.	target gene	DRSC id	calcium entry signal, replicate 1 (fluorescence units)	calcium entry signal, replicate 2 (fluorescence units)	entry to resting ratio	resting calcium signal, replicate 1 (fluorescence units)	resting calcium signal, replicate 2 (fluorescence units)
2	Rdh1 (Retinol dehydrogenase 1)	DRSC06812	2.68e7	1.94e7		1.22e7	8.83e6
3	Or45b (Odorant receptor 45b)	DRSC07488	3.74e7	2.58e7		1.79e7	1.51e7
4	CG34235 + CG30058 + CG34312	DRSC22142	2.60e7	3.30e7		1.35e7	1.55e7
5	CG5535	DRSC10514	3.45e7	3.92e7		1.56e7	2.69e7
6	CG5554	DRSC04513	4.48e7	5.22e7		2.32e7	2.48e7
7	CG9636	DRSC16529	2.47e7	3.28e7		1.16e7	1.43e7
8	CG30075	DRSC05484	4.90e7	4.83e7		2.69e7	2.04e7
9	ppk10 (pickpocket 10)	DRSC01123	3.30e7	5.04e7		1.71e7	2.22e7
